Results deposited as PubChem BioAssay AID1159578 (Peter MacCallum Cancer Centre, 2015)

- Test: 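Knock-downs that alter how fast lymphatic endothelial cells migrate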 (primary screen)
- Cells: human lymphatic endothelial cells
- Knock-down reagent: siRNA pool against human genes, 40 nM
- Timing: 48 h after transfection
- Measured: 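High-content imaging of dye-stained cells in a scratch assay measures filled wound area and nuclei per well; duplicate means given as ratio to mock and robust z-score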
- Reading the numbers: migration robust z-score: higher = faster migration into the scratch; nuclei per well: higher = more cells in the well
- Rule for the call: 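Migration changed when robust z exceeds 2 or falls below -2 and mean nuclei number is at least 3300; otherwise not called changed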
- Meaning of the calls: active = migration changed; inactive = no migration change, or too few cells
Here is a random part of about 18,000 reagents tested. In the full data, about 1,030 (5.7%) were called active. 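Inactive calls also include pools with fewer than 3300 nuclei, whose migration was not assessed.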 The raw values are shown without normalisation. Further read-outs or replicates are left out here. No sequences are given here.

After knock-down of BAAT, the screen gave migration robust z-score -0.75; migration class with cell-count check migration z between -2 and 2; enough cells; nuclei per well, duplicate mean 6500; inactive.
For SNPH, the values are migration robust z-score 0.31; migration class with cell-count check migration z between -2 and 2; enough cells; nuclei per well, duplicate mean 5404; inactive.
For NLRP7 the deposit lists migration robust z-score 0.15; migration class with cell-count check migration z between -2 and 2; enough cells; nuclei per well, duplicate mean 4006; inactive.
Knock-down of CDC42EP5 resulted in: migration robust z-score 0.86; migration class with cell-count check migration z between -2 and 2; enough cells; nuclei per well, duplicate mean 4747; inactive.
For CHPF the deposit lists migration robust z-score 0.18; migration class with cell-count check migration z between -2 and 2; enough cells; nuclei per well, duplicate mean 4534; inactive.
BEX2 showed migration robust z-score -0.43; migration class with cell-count check migration z between -2 and 2; enough cells; nuclei per well, duplicate mean 5346; inactive.
Silencing of GSPT1 came out at: migration robust z-score 2.56; migration class with cell-count check migration z above 2; enough cells; nuclei per well, duplicate mean 5588; active.
With knock-down of GPR82, the record shows migration robust z-score 0.99; migration class with cell-count check migration z between -2 and 2; enough cells; nuclei per well, duplicate mean 4980; inactive.
After knock-down of SYT15, the record shows migration robust z-score -0.64; migration class with cell-count check migration z between -2 and 2; enough cells; nuclei per well, duplicate mean 4822; inactive.
After knock-down of TM7SF2 the results were migration robust z-score 0.9; migration class with cell-count check migration z between -2 and 2; enough cells; nuclei per well, duplicate mean 5854; inactive.
For TTC9B, the values are migration robust z-score 0.08; migration class with cell-count check migration z between -2 and 2; enough cells; nuclei per well, duplicate mean 4322; inactive.
With knock-down of IL2RG the results were migration robust z-score 0.91; migration class with cell-count check migration z between -2 and 2; enough cells; nuclei per well, duplicate mean 5961; inactive.
DNTTIP2 showed migration robust z-score -0.16; migration class with cell-count check migration z between -2 and 2; enough cells; nuclei per well, duplicate mean 3926; inactive.
After knock-down of ZDHHC7 the results were migration robust z-score 1.07; migration class with cell-count check migration z between -2 and 2; enough cells; nuclei per well, duplicate mean 7548; inactive.

Part of the list above, limited to “migration class with cell-count check”.
BEX2 = migration z between -2 and 2; enough cells
GSPT1 = migration z above 2; enough cells
